In PubChem BioAssay AID588497 (NMMLSC, 2011):
The whole screen tested about 360,000 compounds, of which about 780 (0.22%) were called active. Inconclusive means that the source gave no clear call. Such entries were picked first, then a sample of the others. No stated cut-off is given here; in the data, active means inhibition above about 35% (passing the limit was not always enough); inconclusive means no clear call, values can overlap the other calls.

Tested on: Botulinum neurotoxin type F light chain protease (Clostridium botulinum)
Assay: BoNT/F light chain protease inhibitors, primary screen, biochemical, flow cytometry, MLPCN library (AID 588497); further: plate controls were buffer without enzyme for full effect and enzyme alone for no effect
Conditions: Multiplex microsphere protease cleavage assay, at 10 µM, stronger effect = higher value

| Compound | inhibition |
| --- | --- |
| Cc1nc(-c2ccc(F)cc2)c(CC(=O)N2CCN(S(=O)(=O)c3ccc(F)cc3)CC2)s1 | inconclusive: 13.8% |
| Cc1[nH]c(=O)c(Cc2ccccc2)c(O)c1C#N | inconclusive: -39.4% |
| Cc1cc(=O)oc2c(C)c(OC3CCCCC3=O)ccc12 (centres undefined) | inactive: -1.1% |
| CCN(CC)CCNC(Cc1ccccc1)c1cccc(OC)c1 (centres undefined) | inactive: -12.8% |
| CCOc1ccc(NC(=O)CSc2nnc(NC(=O)C3CC3)s2)cc1 | inconclusive: -17.1% |
| COc1cc(OC)cc(C(=O)Nc2ccc(C(=O)NCC3CCCO3)cc2)c1 (centres undefined) | inconclusive: 50.8% |
| C=CCNC(=O)c1cc2cc(Cl)ccc2nc1N | inactive: -1.5% |
| O=C(Oc1ccccc1)N1CCN(c2ccccc2F)CC1 | active: 38.2% |
| Cc1cnc(C(=O)N2CCN(c3ccc(C(F)(F)F)cn3)CC2)cn1 | inconclusive: 72.2% |
| O=C(O)c1c2cc(Br)ccc2nc2[nH]c(=O)[nH]c(=O)c12 | inactive: -3.5% |
| Cc1c(C(=O)N(C)C2CC(C)(C)NC(C)(C)C2)oc2c(F)cccc12 | inactive: 1% |
| CCC(C)N(C(=O)COc1ccc(-c2nnco2)cc1)C1CCS(=O)(=O)C1 (centres undefined) | inconclusive: -11.4% |
| CCOC(=O)c1c(NC(C)=O)sc2c1CCC(C=NCCCN(CC)CC)=C2Sc1ccccc1 | inactive: -24.2% |
| CC(C)(C)Sc1ccccc1S(=O)(=O)C(C)(C)C | inconclusive: 7.6% |
| CC(=O)Nc1sc(N/N=C/c2ccc(C)cc2)nc1-c1ccc(C)cc1 | inconclusive: -58.9% |
| CCOc1ccccc1CNC(=O)C1CCCN(c2nn3c(=O)cc(C)nc3s2)C1 (centres undefined) | inactive: -3.7% |
| CCN(CC)CCNc1nc2c(c(=O)n(C)c(=O)n2C)n1C/C=C(/C)Cl | inconclusive: -16.5% |
| COc1cccc(C(=O)Nc2cccc(-c3ccccc3)c2)c1 | inconclusive: -10.4% |
| O=S(=O)(c1c(Cl)sc(Cl)c1Br)N1CCCC1 | inconclusive: 10.6% |
| COc1ccc(OC)c(/C=N/NC(=O)Cn2ccnc2C)c1 | inconclusive: -76.6% |

| Compound | inhibition |
| --- | --- |
| Cc1cccc(CSc2nnc(CCCCCNC(=O)OC(C)(C)C)o2)c1 | inconclusive: -18.6% |
| CC(C)=C1C2CCC1C1C(=O)N(c3nc(-c4ccc(C(C)C)cc4)c(C)s3)C(=O)C21 (centres undefined) | inconclusive: -32.3% |
| N#Cc1cccc2c1-c1ccccc1/C2=N/NC(N)=S | inconclusive: -48.6% |
| COc1ccc(OC)c(NC(=O)C2CCCN(S(C)(=O)=O)C2)c1 (centres undefined) | inconclusive: -22% |
| O=C(O)CC1(c2ccc(F)cc2)C2CC3CC(C2)CC1C3 (centres undefined) | inconclusive: -3.5% |
| O=C(CSc1ncc(-c2ccccc2)n1C1CCCC1)N1CCc2ccccc21 | inactive: -14.3% |
| O=[N+]([O-])c1ccc(S(=O)(=O)Nc2nnc(C(F)(F)F)s2)cc1 | inconclusive: 30.1% |
| Cc1sc(NC(=O)c2ccco2)c(CN2CCC(C)CC2)c1C | inconclusive: -7.3% |
| Cc1c(C(=O)NCc2ccccn2)oc2ccccc12 | inactive: 2.9% |
| CSc1ncccc1C(=O)OC(C)C(=O)Nc1ccc2c(c1)OCCO2 (centres undefined) | inactive: 4% |
| Cc1cc(=O)oc2cc(NC(=O)CC3(CC(=O)O)CCCC3)ccc12 | inconclusive: -38.8% |
| CCOC(=O)N1CCC(Nc2c(NCCN3CCN(Cc4ccccc4)CC3)c(=O)c2=O)CC1 | inactive: 1.9% |
| O=C(Cc1ccccc1)N1CCN(Cc2ccc(F)cc2)CC1 | inconclusive: -10.8% |
| CCOc1ccc(NC(=O)[C@@H](NC(=O)c2ccco2)C(C)C)cc1 | inconclusive: -17.5% |
| Cc1cc2c(cc1C)CN(c1ccccc1)C2 | inconclusive: -7.8% |
| COC(=O)c1ccccc1N=Nc1c(C)n[nH]c1C | inconclusive: 9.4% |
| Cc1cc(C)c(-n2nnnc2SCC(=O)c2cccs2)c(C)c1 | inconclusive: -49.3% |
| CCOc1cccc(C(=O)Nc2ccccc2C(=O)N2CCOCC2)c1 | inactive: -9.1% |
| Cc1ccc(N2C(=O)c3ccccc3C2C(=O)c2ccc(C)c(C)c2O)cc1 (centres undefined) | inconclusive: -103% |
| CC(C)(C)c1csc(NC(=O)CCc2ccccc2)n1 | inactive: 15.8% |

| Compound | inhibition |
| --- | --- |
| O=C(OCC(=O)N(Cc1ccccc1)Cc1ccccc1)c1ccccc1NCCO | inconclusive: 28.2% |
| CCOC(=O)c1cnc2c(ccc3ccccc32)c1N | inconclusive: 1.7% |
| COc1ccc(NC(=O)c2c(C)noc2-c2snnc2C)cc1 | inconclusive: -158% |
| CC(C)Nc1nc(Oc2ccc(Cl)cc2Cl)cc(C(F)(F)F)n1 | inconclusive: -12.3% |
| COc1ccc(CCCc2nnc(SCC(=O)Nc3cc(C)c(C)cc3Br)o2)cc1 | inactive: -3.9% |
| NC(=O)c1ccccc1NC(=O)Cc1cccs1 | inconclusive: 1.2% |
| O=C(NC12CC3CC(CC(C3)C1)C2)c1c(Cl)cccc1Cl | inconclusive: -2.1% |
| COC(=O)C1=CN(Cc2ccc(OC)c(OC)c2)C=C(C(=O)OC)C1c1ccc(O)cc1 | inactive: 3% |
| O=C(O)C1C2C=CC(C2)C1C(=O)Nc1ccc(Cl)c(Cl)c1 (centres undefined) | inconclusive: 11.9% |
| O=C(O)COc1ccc(/C=C/c2nc(-c3ccccc3O)n[nH]2)cc1 | inconclusive: 22.2% |
| CC(=O)c1ccc(N=Nc2c(C)[nH][nH]c2=O)cc1 | inconclusive: 40.8% |
| CC(C)C1N(C(N)=S)N=CC1(C)C (centres undefined) | inconclusive: -7.2% |
| Nc1nnnn1/N=C/c1ccc(F)cc1 | inconclusive: -0.9% |
| CC(=O)Nc1ccc(NS(=O)(=O)c2cc(Cl)ccc2Cl)cc1 | inactive: -3.5% |
| CCN(CC)C(=O)C(=O)c1cccn1-c1ccccc1C#N | inconclusive: 18.6% |
| CC(C)(C)C1CCC(C(=O)OCC(=O)N2CCN(C(=O)c3ccco3)CC2)CC1 (centres undefined) | inactive: -2% |
| Cc1ccsc1C(=O)Nc1ccc(S(=O)(=O)N2CCOCC2)cc1 | inactive: -4.8% |
| CN(C)c1ccc(/C=N/NC2=NS(=O)(=O)c3ccccc32)cc1 | inconclusive: 25.9% |
| C=CCOc1cccc(/C=N/NC(=O)C(OC)c2ccccc2)c1 (centres undefined) | inconclusive: -5.1% |
